Results reported in US20180320217A1, “METHODS FOR SAMPLING AND MEASURING ORAL LAVAGE PROTEINS” (The Procter & Gamble Company, priority 2017, published 2018).

Test system: proteins in oral lavage
Test: Abundance of proteins in human oral lavage (SomaLogic), TABLE 1
Assay type: in vivo
Details: for Means (Original Scale) High bleeder BL: high bleeders (gingivitis); for Means (Original Scale) High bleeder BL / Means (Original Scale) Low bleeder BL: baseline; for Means (Original Scale) Low bleeder BL: low bleeders (healthy); for Fold Change High bleeder BL vs Low bleeder BL: high bleeders vs low bleeders at baseline
[1] = abundance in oral lavage, high bleeders, week 4 of investigative products
[2] = oral lavage, week 4 of investigative products vs baseline, high bleeders

Molecule	Means (Original Scale) High bleeder BL (abundance in oral lavage)	Means (Original Scale) High bleeder W4 [1]	Means (Original Scale) Low bleeder BL (abundance in oral lavage)	Fold Change High bleeder BL vs Low bleeder BL (oral lavage)	Fold Change High bleeder W4 vs High bleeder BL [2]	Fold Change High bleeder W4 vs High bleeder BL (in vivo, po)	Means (Original Scale) High bleeder W4 (in vivo, po)
HemK methyltransferase family member 2 (protein, UniProt Q9Y5N5 1-214, looked up) Methyltransferase HEMK2: MAGENFATPFHGHVGRGAFSDVYEPAEDTFLLLDALEAAAAELAGVEICLEVGSGSGVVSAFLASMIGPQALYMCTDINPEAAACTLETARCNKVHIQPVITDLVKGLLPRLTEKVDLLVFNPPYVVTPPQEVGSHGIEAAWAGGRNGREVMDRFFPLVPDLLSPRGLFYLVTIKENNPEEILKIMKTKGLQGTTALSRQAGQETLSVLKFTKS	2638	1424	689	3.51	0.62		
Hepatocyte growth factor-like protein (protein, UniProt P26927 19-711, looked up) Hepatocyte growth factor-like …: QRSPLNDFQVLRGTELQHLLHAVVPGPWQEDVADAEECAGRCGPLMDCRAFHYNVSSHGCQLLPWTQHSPHTRLRRSGRCDLFQKKDYVRTCIMNNGVGYRGTMATTVGGLPCQAWSHKFPNDHKYTPTLRNGLEENFCRNPDGDPGGPWCYTTDPAVRFQSCGIKSCREAACVWCNGEEYRGAVDRTESGRECQRWDLQHPHQHPFEPGKFLDQGLDDNYCRNPDGSERPWCYTTDPQIEREFCDLPRCGSEAQPRQEATTVSCFRGKGEGYRGTANTTTAGVPCQRWDAQIPHQHRFTPEKYACKDLRENFCRNPDGSEAPWCFTLRPGMRAAFCYQIRRCTDDVRPQDCYHGAGEQYRGTVSKTRKGVQCQRWSAETPHKPQFTFTSEPHAQLEENFCRNPDGDSHGPWCYTMDPRTPFDYCALRRCADDQPPSILDPPDQVQFEKCGKRVDRLDQRRSKLRVVGGHPGNSPWTVSLRNRQGQHFCGGSLVKEQWILTARQCFSSCHMPLTGYEVWLGTLFQNPQHGEPSLQRVPVAKMVCGPSGSQLVLLKLERSVTLNQRVALICLPPEWYVVPPGTKCEIAGWGETKGTGNDTVLNVALLNVISNQECNIKHRGRVRESEMCTEGLLAPVGACEGDYGGPLACFTHNCWVLEGIIIPNRVCARSRWPAVFTRVSVFVDWIHKVMRLG	2399	580	131	9.38	0.61		
HERV-H LTR-associating protein 2 (protein, UniProt Q9UM44 23-414, looked up) HERV-H LTR-associating …: IFPLAFFIYVPMNEQIVIGRLDEDIILPSSFERGSEVVIHWKYQDSYKVHSYYKGSDHLESQDPRYANRTSLFYNEIQNGNASLFFRRVSLLDEGIYTCYVGTAIQVITNKVVLKVGVFLTPVMKYEKRNTNSFLICSVLSVYPRPIITWKMDNTPISENNMEETGSLDSFSINSPLNITGSNSSYECTIENSLLKQTWTGRWTMKDGLHKMQSEHVSLSCQPVNDYFSPNQDFKVTWSRMKSGTFSVLAYYLSSSQNTIINESRFSWNKELINQSDFSMNLMDLNLSDSGEYLCNISSDEYTLLTIHTVHVEPSQETASHNKGLWILVPSAILAAFLLIWSVKCCRAQLEARRSRHPADGAQQERCCVPPGERCPSAPDNGEENVPLSGKV	1034	623	226	4.01	0.64		
Histone-lysine N-methyltransferase EHMT2 (protein, UniProt Q96KQ7 2-1210, looked up) Histone-lysine …: AAAAGAAAAAAAEGEAPAEMGALLLEKETRGATERVHGSLGDTPRSEETLPKATPDSLEPAGPSSPASVTVTVGDEGADTPVGATPLIGDESENLEGDGDLRGGRILLGHATKSFPSSPSKGGSCPSRAKMSMTGAGKSPPSVQSLAMRLLSMPGAQGAAAAGSEPPPATTSPEGQPKVHRARKTMSKPGNGQPPVPEKRPPEIQHFRMSDDVHSLGKVTSDLAKRRKLNSGGGLSEELGSARRSGEVTLTKGDPGSLEEWETVVGDDFSLYYDSYSVDERVDSDSKSEVEALTEQLSEEEEEEEEEEEEEEEEEEEEEEEEDEESGNQSDRSGSSGRRKAKKKWRKDSPWVKPSRKRRKREPPRAKEPRGVNGVGSSGPSEYMEVPLGSLELPSEGTLSPNHAGVSNDTSSLETERGFEELPLCSCRMEAPKIDRISERAGHKCMATESVDGELSGCNAAILKRETMRPSSRVALMVLCETHRARMVKHHCCPGCGYFCTAGTFLECHPDFRVAHRFHKACVSQLNGMVFCPHCGEDASEAQEVTIPRGDGVTPPAGTAAPAPPPLSQDVPGRADTSQPSARMRGHGEPRRPPCDPLADTIDSSGPSLTLPNGGCLSAVGLPLGPGREALEKALVIQESERRKKLRFHPRQLYLSVKQGELQKVILMLLDNLDPNFQSDQQSKRTPLHAAAQKGSVEICHVLLQAGANINAVDKQQRTPLMEAVVNNHLEVARYMVQRGGCVYSKEEDGSTCLHHAAKIGNLEMVSLLLSTGQVDVNAQDSGGWTPIIWAAEHKHIEVIRMLLTRGADVTLTDNEENICLHWASFTGSAAIAEVLLNARCDLHAVNYHGDTPLHIAARESYHDCVLLFLSRGANPELRNKEGDTAWDLTPERSDVWFALQLNRKLRLGVGNRAIRTEKIICRDVARGYENVPIPCVNGVDGEPCPEDYKYISENCETSTMNIDRNITHLQHCTCVDDCSSSNCLCGQLSIRCWYDKDGRLLQEFNKIEPPLIFECNQACSCWRNCKNRVVQSGIKVRLQLYRTAKMGWGVRALQTIPQGTFICEYVGELISDAEADVREDDSYLFDLDNKDGEVYCIDARYYGNISRFINHLCDPNIIPVRVFMLHQDLRFPRIAFFSSRDIRTGEELGFDYGDRFWDIKSKYFTCQCGSEKCKHSAEAIALEQSRLARLDPHPELLPELGSLPPVNT	224		79	2.52		0.72	154
ICOS ligand (protein, UniProt O75144 19-302, looked up) ICOS ligand: DTQEKEVRAMVGSDVELSCACPEGSRFDLNDVYVYWQTSESKTVVTYHIPQNSSLENVDSRYRNRALMSPAGMLRGDFSLRLFNVTPQDEQKFHCLVLSQSLGFQEVLSVEVTLHVAANFSVPVVSAPHSPSQDELTFTCTSINGYPRPNVYWINKTDNSLLDQALQNDTVFLNMRGLYDVVSVLRIARTPSVNIGCCIENVLLQQNLTVGSQTGNDIGERDKITENPVSTGEKNAATWSILAVLCLLVVVAVAIGWVCRDRCLQHSYAGAWAVSPETELTGHV	80395	51085	13720	5.66	0.73		
Iduronate 2-sulfatase (protein, UniProt P22304 34-455; P22304 456-550, looked up) Iduronate 2-sulfatase 42 kDa …: TDALNVLLIIVDDLRPSLGCYGDKLVRSPNIDQLASHSLLFQNAFAQQAVCAPSRVSFLTGRRPDTTRLYDFNSYWRVHAGNFSTIPQYFKENGYVTMSVGKVFHPGISSNHTDDSPYSWSFPPYHPSSEKYENTKTCRGPDGELHANLLCPVDVLDVPEGTLPDKQSTEQAIQLLEKMKTSASPFFLAVGYHKPHIPFRYPKEFQKLYPLENITLAPDPEVPDGLPPVAYNPWMDIRQREDVQALNISVPYGPIPVDFQRKIRQSYFASVSYLDTQVGRLLSALDDLQLANSTIIAFTSDHGWALGEHGEWAKYSNFDVATHVPLIFYVPGRTASLPEAGEKLFPYLDPFDSASQLMEPGRQSMDLVELVSLFPTLAGLAGLQVPPRCPVPSFHVELCREGKNLLKHFRFRDLEEDPYLPG Iduronate 2-sulfatase 14 kDa …: NPRELIAYSQYPRPSDIPQWNSDKPSLKDIKIMGYSIRTIDYRYTVWVGFNPDEFLANFSDIHAGELYFVDSDPLQDHNMYNDSQGGDLFQLLMP	1631	1106	738	2.21	0.70		
Inhibitor of growth protein 1 (protein, UniProt Q9UK53 1-422, looked up) Inhibitor of growth protein 1: MSFVECPYHSPAERLVAEADEGGPSAITGMGLCFRCLLFSFSGRSGVEGGRVDLNVFGSLGLQPWIGSSRCWGGPCSSALRCGWFSSWPPPSKSAIPIGGGSRGAGRVSRWPPPHWLEAWRVSPLPLSPLSPATFGRGFIAVAVIPGLWARGRGCSSDRLPRPAGPARRQFQAASLLTRGWGRAWPWKQILKELDECYERFSRETDGAQKRRMLHCVQRALIRSQELGDEKIQIVSQMVELVENRTRQVDSHVELFEAQQELGDTAGNSGKAGADRPKGEAAAQADKPNSKRSRRQRNNENRENASSNHDHDDGASGTPKEKKAKTSKKKKRSKAKAEREASPADLPIDPNEPTYCLCNQVSYGEMIGCDNDECPIEWFHFSCVGLNHKPKGKWYCPKCRGENEKTMDKALEKSKKERAYNR	1046	592	369	2.67	0.58		
Inorganic pyrophosphatase (protein, UniProt Q15181 2-289, looked up) Inorganic pyrophosphatase: SGFSTEERAAPFSLEYRVFLKNEKGQYISPFHDIPIYADKDVFHMVVEVPRWSNAKMEIATKDPLNPIKQDVKKGKLRYVANLFPYKGYIWNYGAIPQTWEDPGHNDKHTGCCGDNDPIDVCEIGSKVCARGEIIGVKVLGILAMIDEGETDWKVIAINVDDPDAANYNDINDVKRLKPGYLEATVDWFRRYKVPDGKPENEFAFNAEFKDKDFAIDIIKSTHDHWKALVTKKTNGKGISCMNTTLSESPFKCDPDAARAIVDALPPPCESACTVPTDVDKWFHHQKN	4082	1645	1342	3.73	0.49		
Insulin-like growth factor-binding protein 6 (protein, UniProt P24592 28-240, looked up) Insulin-like growth …: RCPGCGQGVQAGCPGGCVEEEDGGSPAEGCAEAEGCLRREGQECGVYTPNCAPGLQCHPPKDDEAPLRALLLGRGRCLPARAPAVAEENPKESKPQAGTARPQDVNRRDQQRNPGTSTTPSQPNSAGVQDTEMGPCRRHLDSVLQQLQTEVYRGAQTLYVPNCDHRGFYRKRQCRSSQGQRRGPCWCVDRMGKSLPGSPDGNGSSSCPTGSSG	2178	1237	761	2.37	0.63		
